The assay deals with CyPet-Ubc12 (UniProt P61081). The experiment in a line: FRET or BRET.

Protein sequences, listed by entry. Tags and fused reporters are not part of them.
UniProt P61081: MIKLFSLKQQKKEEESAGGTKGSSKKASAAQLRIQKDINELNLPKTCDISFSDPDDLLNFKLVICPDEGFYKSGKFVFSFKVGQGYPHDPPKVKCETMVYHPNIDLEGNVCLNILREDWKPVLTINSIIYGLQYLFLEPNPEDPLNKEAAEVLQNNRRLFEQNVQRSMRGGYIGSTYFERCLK
UniProt O75925: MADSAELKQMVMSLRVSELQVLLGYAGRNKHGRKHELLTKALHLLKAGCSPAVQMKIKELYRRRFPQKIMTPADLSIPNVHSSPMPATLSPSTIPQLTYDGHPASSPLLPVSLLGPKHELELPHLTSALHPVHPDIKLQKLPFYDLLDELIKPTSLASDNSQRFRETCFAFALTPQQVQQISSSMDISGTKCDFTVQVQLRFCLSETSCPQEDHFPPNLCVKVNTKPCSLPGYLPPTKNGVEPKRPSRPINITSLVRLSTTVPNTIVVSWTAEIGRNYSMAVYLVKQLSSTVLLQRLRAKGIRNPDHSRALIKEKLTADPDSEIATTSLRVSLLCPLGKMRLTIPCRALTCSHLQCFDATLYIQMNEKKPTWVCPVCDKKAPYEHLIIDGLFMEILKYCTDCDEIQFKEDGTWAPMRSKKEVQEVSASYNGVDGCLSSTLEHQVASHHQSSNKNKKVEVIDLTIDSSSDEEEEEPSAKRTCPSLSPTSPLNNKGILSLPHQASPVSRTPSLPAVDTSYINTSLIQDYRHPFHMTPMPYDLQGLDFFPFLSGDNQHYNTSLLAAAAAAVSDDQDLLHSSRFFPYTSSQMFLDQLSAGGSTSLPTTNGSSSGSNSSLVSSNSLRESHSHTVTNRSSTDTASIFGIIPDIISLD

The results in this text go back to article doi:10.1101/2025.07.29.667540.

No constants are given. Whether binding was seen depends on the method and setting. In cells and extracts the contact can be indirect.

With “YPet-PIAS1 (from UniProt O75925 1-651) (enzyme)”, the binding result is recorded as “no binding”.
